Experimental data: publication PMC12682277
These are yes or no findings as the source states them, for the method shown. In cells and extracts the contact can be indirect. Some binding calls cover weakened binding; strength is not graded here.

Target: T1, RAG1 (human (endogenous in U87 and Nalm6)) (UniProt P15918)
T1 sequence: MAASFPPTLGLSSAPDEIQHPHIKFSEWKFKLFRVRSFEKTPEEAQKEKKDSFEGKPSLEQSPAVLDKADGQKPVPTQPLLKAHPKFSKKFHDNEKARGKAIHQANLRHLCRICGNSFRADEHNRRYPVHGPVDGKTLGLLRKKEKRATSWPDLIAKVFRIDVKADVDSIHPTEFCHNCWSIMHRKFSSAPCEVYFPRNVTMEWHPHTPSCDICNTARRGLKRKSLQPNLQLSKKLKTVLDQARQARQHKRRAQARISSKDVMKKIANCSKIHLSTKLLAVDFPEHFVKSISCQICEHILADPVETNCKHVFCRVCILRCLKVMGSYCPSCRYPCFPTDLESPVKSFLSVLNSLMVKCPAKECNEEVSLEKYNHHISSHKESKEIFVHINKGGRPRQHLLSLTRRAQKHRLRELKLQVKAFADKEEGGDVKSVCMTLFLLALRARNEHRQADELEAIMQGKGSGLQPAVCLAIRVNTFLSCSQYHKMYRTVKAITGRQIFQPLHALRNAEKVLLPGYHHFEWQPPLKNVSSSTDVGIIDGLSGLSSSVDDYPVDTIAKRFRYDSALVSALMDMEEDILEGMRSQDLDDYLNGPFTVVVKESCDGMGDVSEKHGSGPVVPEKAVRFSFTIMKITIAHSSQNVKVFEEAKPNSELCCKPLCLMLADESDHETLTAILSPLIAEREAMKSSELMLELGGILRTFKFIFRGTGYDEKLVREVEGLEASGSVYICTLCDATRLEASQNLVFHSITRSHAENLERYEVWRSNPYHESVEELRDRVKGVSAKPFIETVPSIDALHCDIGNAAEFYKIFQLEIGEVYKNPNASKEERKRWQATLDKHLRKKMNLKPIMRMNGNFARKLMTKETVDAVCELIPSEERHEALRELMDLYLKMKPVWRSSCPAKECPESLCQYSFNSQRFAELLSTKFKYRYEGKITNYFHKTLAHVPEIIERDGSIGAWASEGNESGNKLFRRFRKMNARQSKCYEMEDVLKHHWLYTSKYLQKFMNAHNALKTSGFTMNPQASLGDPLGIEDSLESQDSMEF
Assay: pull-down; streptavidin beads with 5'-biotinylated double-stranded canonical 12RSS DNA (AKN1/2, 4 ug) incubated with 30 ug cell-free extract of U87 or Nalm6 in PBSI buffer, 2 h at 4 C; bound proteins eluted in Laemmli buffer and western blotted for RAG1 and RAG2; the bait is DNA, not a protein

B1: RAG2 (protein, UniProt P55895 1-527)
chain: MSLQMVTVSNNIALIQPGFSLMNFDGQVFFFGQKGWPKRSCPTGVFHLDVKHNHVKLKPTIFSKDSCYLPPLRYPATCTFKGSLESEKHQYIIHGGKTPNNEVSDKIYVMSIVCKNNKKVTFRCTEKDLVGDVPEARYGHSINVVYSRGKSMGVLFGGRSYMPSTHRTTEKWNSVADCLPCVFLVDFEFGCATSYILPELQDGLSFHVSIAKNDTIYILGGHSLANNIRPANLYRIRVDLPLGSPAVNCTVLPGGISVSSAILTQTNNDEFVIVGGYQLENQKRMICNIISLEDNKIEIREMETPDWTPDIKHSKIWFGSNMGNGTVFLGIPGDNKQVVSEGFYFYMLKCAEDDTNEEQTTFTNSQTSTEDPGDSTPFEDSEEFCFSAEANSFDGDDEFDTYNEDDEEDESETGYWITCCPTCDVDINTWVPFYSTELNKPAMIYCSHGDGHWVHAQCMDLAERTLIHLSAGSNKYYCNEHVEIARALHTPQRVLPLKKPPMKSLRKKGSGKILTPAKKSFLRRLFD
binding: binds
